Measurements published in paper PMC8257592.

Chains of the proteins cited; added tags and fusions are not shown. Residues count along the entry.
UniProt P08151: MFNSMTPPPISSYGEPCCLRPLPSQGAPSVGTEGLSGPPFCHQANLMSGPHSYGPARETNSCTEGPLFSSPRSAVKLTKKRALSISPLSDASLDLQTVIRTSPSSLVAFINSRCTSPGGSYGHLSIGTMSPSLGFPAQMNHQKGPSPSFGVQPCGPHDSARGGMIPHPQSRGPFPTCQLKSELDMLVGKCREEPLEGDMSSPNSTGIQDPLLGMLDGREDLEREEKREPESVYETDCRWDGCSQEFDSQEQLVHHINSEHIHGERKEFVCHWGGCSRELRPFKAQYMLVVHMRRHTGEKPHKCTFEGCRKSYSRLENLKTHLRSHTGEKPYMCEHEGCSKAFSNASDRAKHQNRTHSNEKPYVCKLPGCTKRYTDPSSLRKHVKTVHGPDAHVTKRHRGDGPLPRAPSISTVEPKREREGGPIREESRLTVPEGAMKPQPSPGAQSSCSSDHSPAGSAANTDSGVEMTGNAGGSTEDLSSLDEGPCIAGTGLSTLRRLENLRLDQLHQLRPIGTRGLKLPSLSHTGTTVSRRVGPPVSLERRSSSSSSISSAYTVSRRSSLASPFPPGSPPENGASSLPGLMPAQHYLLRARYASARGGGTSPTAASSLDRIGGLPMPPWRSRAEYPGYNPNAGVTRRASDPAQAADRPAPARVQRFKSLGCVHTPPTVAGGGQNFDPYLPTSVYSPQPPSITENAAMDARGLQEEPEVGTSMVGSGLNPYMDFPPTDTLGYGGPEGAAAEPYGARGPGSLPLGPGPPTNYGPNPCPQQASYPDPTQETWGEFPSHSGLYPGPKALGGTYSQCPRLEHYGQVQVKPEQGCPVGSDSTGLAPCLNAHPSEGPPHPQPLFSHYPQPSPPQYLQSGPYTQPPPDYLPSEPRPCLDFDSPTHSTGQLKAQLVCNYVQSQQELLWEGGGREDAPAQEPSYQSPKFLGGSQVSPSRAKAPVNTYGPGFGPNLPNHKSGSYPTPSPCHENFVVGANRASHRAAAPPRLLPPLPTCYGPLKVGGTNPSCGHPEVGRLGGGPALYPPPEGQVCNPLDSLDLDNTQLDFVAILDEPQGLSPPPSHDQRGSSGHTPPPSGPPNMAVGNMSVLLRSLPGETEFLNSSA
UniProt P10809, residues 27-573: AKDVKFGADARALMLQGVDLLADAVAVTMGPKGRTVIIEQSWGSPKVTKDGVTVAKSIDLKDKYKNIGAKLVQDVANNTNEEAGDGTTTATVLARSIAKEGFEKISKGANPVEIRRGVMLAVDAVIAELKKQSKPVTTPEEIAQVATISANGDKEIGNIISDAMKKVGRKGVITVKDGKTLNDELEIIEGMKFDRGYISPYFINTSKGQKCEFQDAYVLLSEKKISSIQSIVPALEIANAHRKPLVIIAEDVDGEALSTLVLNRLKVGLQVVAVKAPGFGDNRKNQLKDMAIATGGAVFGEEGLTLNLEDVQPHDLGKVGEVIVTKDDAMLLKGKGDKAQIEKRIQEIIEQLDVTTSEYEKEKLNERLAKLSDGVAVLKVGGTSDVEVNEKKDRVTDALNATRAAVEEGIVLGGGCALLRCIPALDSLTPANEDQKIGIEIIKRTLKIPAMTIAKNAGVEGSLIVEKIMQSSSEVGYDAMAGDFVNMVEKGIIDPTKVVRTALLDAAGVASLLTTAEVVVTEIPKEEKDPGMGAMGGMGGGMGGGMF
UniProt Q05639: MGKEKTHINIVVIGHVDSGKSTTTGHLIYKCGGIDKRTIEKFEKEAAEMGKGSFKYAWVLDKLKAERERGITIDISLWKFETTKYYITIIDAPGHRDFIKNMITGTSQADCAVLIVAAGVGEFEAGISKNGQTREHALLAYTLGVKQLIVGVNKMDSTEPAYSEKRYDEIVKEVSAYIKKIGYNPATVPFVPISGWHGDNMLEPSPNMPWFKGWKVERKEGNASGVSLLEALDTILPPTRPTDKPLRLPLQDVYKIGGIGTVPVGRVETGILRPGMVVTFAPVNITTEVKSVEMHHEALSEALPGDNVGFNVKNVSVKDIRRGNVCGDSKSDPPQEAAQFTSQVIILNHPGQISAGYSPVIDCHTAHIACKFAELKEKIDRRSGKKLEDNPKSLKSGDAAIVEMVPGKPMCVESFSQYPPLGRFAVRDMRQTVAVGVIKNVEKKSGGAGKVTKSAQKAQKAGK
UniProt Q14764: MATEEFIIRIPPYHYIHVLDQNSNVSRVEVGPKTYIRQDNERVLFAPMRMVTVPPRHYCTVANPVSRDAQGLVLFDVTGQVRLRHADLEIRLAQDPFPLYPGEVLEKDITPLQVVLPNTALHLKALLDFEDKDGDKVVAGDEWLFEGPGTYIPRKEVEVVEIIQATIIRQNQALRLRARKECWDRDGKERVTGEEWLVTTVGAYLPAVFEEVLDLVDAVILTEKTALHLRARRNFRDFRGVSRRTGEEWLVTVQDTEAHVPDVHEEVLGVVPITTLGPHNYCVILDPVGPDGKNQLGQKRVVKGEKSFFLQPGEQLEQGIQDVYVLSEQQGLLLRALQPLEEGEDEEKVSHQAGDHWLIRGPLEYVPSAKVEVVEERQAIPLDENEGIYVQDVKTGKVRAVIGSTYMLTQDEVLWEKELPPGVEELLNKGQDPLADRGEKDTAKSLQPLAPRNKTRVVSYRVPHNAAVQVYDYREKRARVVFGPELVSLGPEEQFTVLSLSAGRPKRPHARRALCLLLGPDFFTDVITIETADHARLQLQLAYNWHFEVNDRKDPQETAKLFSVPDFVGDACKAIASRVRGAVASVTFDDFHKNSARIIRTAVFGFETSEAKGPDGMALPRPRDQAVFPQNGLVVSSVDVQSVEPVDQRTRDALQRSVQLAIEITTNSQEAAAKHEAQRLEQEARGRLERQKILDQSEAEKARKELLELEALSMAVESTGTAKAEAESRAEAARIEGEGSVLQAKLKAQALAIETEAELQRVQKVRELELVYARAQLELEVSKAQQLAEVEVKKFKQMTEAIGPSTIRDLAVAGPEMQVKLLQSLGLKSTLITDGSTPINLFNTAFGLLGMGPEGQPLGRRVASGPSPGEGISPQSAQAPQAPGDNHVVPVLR

Molecular target: GLI1 (endogenous) (human (endogenous in SW1353 and HCS2/8)) (UniProt P08151)
Assay: affinity purification with mass spectrometry; IP with GLI1 antibody in SW1353 cell lysates, silver staining, LC-MS/MS; normal IgG as negative control

HSP60 (from UniProt P10809 27-573)
binding: binds

eEF1A2 (from UniProt Q05639 1-463)
binding: binds

major vault protein (endogenous) (from UniProt Q14764 1-893)
binding: binds

These are yes or no findings as the source states them, for the method shown. Binding seen in cells or lysates may run through a third protein. These calls come from enrichment with a bait or labelling near it, and not all partners need be listed.
